Experimental data published in PubChem BioAssay AID602476 (National Center for Advancing Translational Sciences (NCATS), 2012).
Inconclusive results, whose numbers are uncertain, are shown with a selection of clear calls. Potencies beside an inconclusive call are fits to weak or partial responses and may not hold up. Calls of active or inactive are those of the source. Calls follow the shape of the dose curve; as a rule, active = well fitted activation curve with a large enough effect; inconclusive = small, poorly fitted or top-dose-only effect; inactive = flat fitted curve, though single readings scatter.

Experiment: FLuc inhibitory activity for the follow-up compounds in a cell-based translational read-through assay
Settings: GripTite 293 FLucUGA read-through, luminescence, 48 h; series mostly up to 38.3 µM; activation (read-through/stabilization): at the top concentration
From the text: NCGC Assay Overview: Firefly (Photinus pyralis) luciferase is one of the most commonly used transcriptional reporters. It is considered one of the more dynamically responsive reporters - that is, responsive to changes in reporter transcription - as it requires no post-translational modifications and is enzymatically active directly after protein synthesis (Wood, 1998). With no endogenous expression in mammalian cells and without the requirement of external excitation, it offers very little background signal, thus generally providing excellent signal to background for most assays. Previous profiling work to determine the prevalence of compounds that affect FLuc enzymatic activity (PubChem AID 411) identified that ~3% of the MLSMR library (then at ~72K) inhibited FLuc (Auld et al., 2008). […] Of the compounds identified in this profile that inhibited FLuc, 151 compounds were selected for further analysis, in an effort to better understand their mode of inhibiting FLuc. The assay described here was to determine the activity of the compounds in a cell-based firefly luciferase reporter gene assay originally designed to identify compounds that enchanced translational read-through of a FLuc cDNA that contained a premature stop codon (Auld et al., 2009; Auld et al., 2010). Compounds that enhance translational read-through or compounds that stabilize FLuc intracellularly are identified as active compounds in the assay.
NCGC Assay Protocol Summary: Reagents: Transient transfection of FlucUGA construct: TransFast Transfection Reagent (Promega #E2431); FLucUGA construct (refer to Auld et al., 2009) #GripTite 293 MSR Cell Line (Invitrogen #R795-07) #Complete growth media: DMEM (Invitrogen #11965), 10% HIFBS, 0.1mM MEM NEAA, 5mL/L pen-strep (of 5000U/mL stock), 600ug/mL Geneticin #Assay media: DMEM without phenol red (Invitrogen #21063), 5% charcoal-stripped HIFBS (Hyclone #SH30071.03), 0.1mM MEM NEAA In-house detection reagent: 300mM Tris-HCl, 300mM Trizma base, 300mM MgCl, 1% Triton-X100, 5mM DTT, 500uM Coenzyme A trilithium salt (Sigma #C3019),450uM ATP (Sigma #A7699), 1mM D-luciferin sodium salt monohydrate (Biosynth #L8240) Control compounds used were two known firefly luciferase inhibitors (3-(5-(3-chlorophenyl)-1,2,4-oxadiazol-3-yl)benzoic acid and 5-(2-fluorophenyl)-3-phenyl-1,2,4-oxadiazole), and DMSO. Assay Summary: Transient transfection of FlucUGA construct: Day 1: GripTite cells were plated in T175 flasks at a density of 1.75 x 10^7 cells/T175 flask in complete growth media without Geneticin and allowed to grow ON in a 37 degrees Celsius incubator. Day 2: Cells in T175 flask were transfected - with 10ug of DNA and 30uL Transfast in 12mL complete growth media without serum and without Geneticin for 4 hours at 37 degrees Celsius. After incubation, cells were trypsinized, spun down, and resuspended to a concentration of 3.3 x 10^5 cells/mL in assay media. 6uL of cells in assay buffer were dispensed at 2000cells/well (3.3 x 10^5 cells/mL) into Greiner solid-white TC-treated 1536-well plates using a Multidrop Combi (Thermo Fisher Scientific). Plates were incubated for one hour at 37 degree Celsius, 95% humidity, 5% CO2. These assay plates were then treated with 23nL of compound or DMSO using a Kalypsys pin tool, which allows for delivery of a 12-point titration of each compound to the assay plate, with a final compound concentration ranging from approximately ~38uM to 0.2nM. Assay plates were then incubated for 48 hours. After incubation, plates were washed three times with DPBS (7uL/well). After the third wash, 6uL of DPBS was added to each well. 3uL of 3X luciferase detection reagent was then added to each well using a flying reagent dispenser (FRD). After a 15 minute incubation to allow for cell lysis, luciferase activity was measured using a ViewLux CCD imager (PerkinElmer), with an average exposure time of 2-12 seconds.

Compound	Potency	activation (read-through/stabilization)
Cc1ccc(C(=O)Nc2cccc(C(=O)O)c2)cc1S(=O)(=O)N1CCCCC1	active: 895 nM	–
COc1ccc2nc(NC(=O)Cc3cccs3)sc2c1	inconclusive: 7110 nM [activator, partial curve]	–
COc1cccc(-c2nc3ccccc3s2)c1	active: 1260 nM	–
O=C(Cc1ccccc1)Nc1ccccc1C(=O)Nc1ccc(C(=O)O)cc1	–	inactive: 2.61%
O=S(=O)(c1ccc(-c2nc3ccccc3s2)cc1)N1CCCC1	inconclusive: 2520 nM [activator, partial curve, poor fit]	–
COc1ccc(Br)cc1C(=O)Nc1ccc(C(=O)O)cc1	–	inactive: 7.8%
COc1ccc(-c2nc3ccccc3s2)cc1O	active: 5650 nM	–
O=C(O)c1cccc(NC(=O)c2ccccc2NC(=O)c2ccccc2F)c1	inconclusive: 3560 nM [activator, partial curve, poor fit]	–
CCOc1ccc2nc(NC(=O)c3ccccn3)sc2c1	inconclusive: 252 nM [activator, full curve]	–
CN(C)S(=O)(=O)c1ccc(C(=O)Nc2cccc(C(=O)O)c2)cc1	–	inactive: 16.7%
CCOC(=O)N1CCN(CC(=O)Nc2nc3ccc(OC)cc3s2)CC1	inconclusive: 1420 nM [activator, full curve]	–
O=C(Nc1ccc(-c2nc3ccccc3s2)cc1)C1=COCCO1	inconclusive: 318 nM [activator, full curve, poor fit]	–
CN=c1scc(-c2ccccc2F)n1/N=C/c1ccc[nH]1	active: 50.4 nM	–
NC(=O)Cc1ccc2sc(-c3ccccc3)nc2c1	inconclusive: 2000 nM [activator, full curve]	–
O=C(Nc1ccccc1C(=O)O)c1cccc(NC(=O)c2ccccc2Br)c1	inconclusive: 8950 nM [activator, partial curve, poor fit]	–

Three entries out of the list, sorted by molecular weight, smallest number first:
Compound	Potency	activation (read-through/stabilization)
COc1ccc(-c2nc3ccccc3s2)cc1O	active: 5650 nM	–
O=C(Cc1ccccc1)Nc1ccccc1C(=O)Nc1ccc(C(=O)O)cc1	–	inactive: 2.61%
CCOC(=O)N1CCN(CC(=O)Nc2nc3ccc(OC)cc3s2)CC1	inconclusive: 1420 nM [activator, full curve]	–
